Here are results for 42 sequences from article PMC7819943, “Rice protein-binding microarrays: a tool to detect cis-acting elements near promoter regions in rice”.

Chains of the proteins cited; added tags and fusions are not shown.
UniProt Q0JBA9, entry or part of it: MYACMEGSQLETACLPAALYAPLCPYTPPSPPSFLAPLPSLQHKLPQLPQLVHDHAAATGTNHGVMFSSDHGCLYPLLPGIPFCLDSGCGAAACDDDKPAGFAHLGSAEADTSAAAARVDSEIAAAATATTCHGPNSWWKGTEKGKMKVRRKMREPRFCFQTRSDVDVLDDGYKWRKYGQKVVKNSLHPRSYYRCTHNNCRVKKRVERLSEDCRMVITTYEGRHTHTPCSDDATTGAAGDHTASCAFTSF

The list shows a part of the results.

The test deals with OsWRKY34 (Oryza sativa, UniProt Q0JBA9 1-250). Nature of the test: protein-binding microarray (RPBM); PBS, 2% BSA, 51.3 ng/ul salmon testes DNA, 50 uM zinc acetate, 200 nM TF, 25 C, 1 h; high values mean tight binding. The following applies: protein: recombinant; tags: N-terminal polyhistidine and DsRed monomer fusion (pET32a); label: CyDye5-dUTP incorporated in the synthesized complementary strand; 3' TTTTT single-stranded linker to array surface; dsDNA, one strand shown. The procedure, abridged: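 For the binding signal, per-feature fluorescence intensity was read in arbitrary units on an Axon 4000B scanner. Before scanning, a 2% BSA-blocked custom Agilent array made double-stranded with Cy5-dUTP was washed after 1 h at 25 °C with 200 nM protein and 50 µM zinc acetate. The proteins were Ni–NTA-purified transcription factors with N-terminal polyhistidine and DsRed fusions, expressed in E. coli BL21-CodonPlus.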
For “ATATGGCCCTGCACTACGAGTCTGTTTGTTTACTTGAGTCCGGAGTCACCTAGTGCAG”, the binding signal is 9210 fluorescence intensity (a.u.).
As for “TGGTGGTGGTTCTTTCAATTTGGAATACTGTCCTAGTGTCCGGAGTCACCTAGTGCAG”, the figure is 8580 fluorescence intensity (a.u.).
Under “TGACGCCGTTGACTTTTTCTTACATGTTTGACCATTCGTCCGGAGTCACCTAGTGCAG” stands 36700 fluorescence intensity (a.u.); under “TGTTACTGCGAGCATCACTTACTACTCTGTTTGACCATCACGGAGTCACCTAGTGCAG”, 10500 fluorescence intensity (a.u.); under “TTCTTCATTTGTAATATGTCGTTTGGTTTATTTCCCGAACCGGAGTCACCTAGTGCAG”, 10500 fluorescence intensity (a.u.).
On to “CCATCACCAAACCCCGAATTTACTACGACATTTTCCATCACGGAGTCACCTAGTGCAG”, for which the binding signal was 9300 fluorescence intensity (a.u.).
As for “GTGGAAACCGCTAGCATAAATATTACGAGGGGTGGGAGGCCGGAGTCACCTAGTGCAG”, the figure is 8850 fluorescence intensity (a.u.); as for “CGACGCTTCCCATATAATTTTGGCCCGGAACTCCAATTCCCGGAGTCACCTAGTGCAG”, 8710 fluorescence intensity (a.u.); as for “TAATTGTGTAGCTTCATCATCCCATCCATATCCATCGTTCCGGAGTCACCTAGTGCAG”, 9220 fluorescence intensity (a.u.).
Under “CGGCGGTGGTCTCCGCCGTTGGATCTGGGCGTTGACTTGTCGGAGTCACCTAGTGCAG” stands 9160 fluorescence intensity (a.u.); under “CTCTCTTTTGTTTTTTTTGGATTTTTAGTGAATATAATGACGGAGTCACCTAGTGCAG”, 10000 fluorescence intensity (a.u.); under “TGTCAAATCTTTATTTTTCTACTATACTACTATTTCTCTTCGGAGTCACCTAGTGCAG”, 8640 fluorescence intensity (a.u.).
Under “CAGAAATGGCAACTAGCCTCGGATTTTTCCCTTTTATGTCCGGAGTCACCTAGTGCAG” stands 9200 fluorescence intensity (a.u.); under “TCGCTCTCGCCCGCCGTCGCCATGCTCGCCCGCTGCCGCTCGGAGTCACCTAGTGCAG”, 8410 fluorescence intensity (a.u.).
As to “TCCGACCGTTGCGTCCGCCTCAGGTGCGCGCCCGCTTTTCCGGAGTCACCTAGTGCAG”, the binding signal was 8070 fluorescence intensity (a.u.).
On to “AAATATCAGTCCTGTTTTTTTTTACTTTCTTGCTCTATCACGGAGTCACCTAGTGCAG”, for which the binding signal is 11100 fluorescence intensity (a.u.).
Under “GGACACCATGACCACCAGATTCCCATCGAAGCTCCATCCACGGAGTCACCTAGTGCAG” stands 8130 fluorescence intensity (a.u.); under “GAGACTAATTCCGACCTTGACCAAACCAAACCCTACCAAACGGAGTCACCTAGTGCAG”, 9200 fluorescence intensity (a.u.).
On to “CGGTTTTTTCCCTTGGTTTTTTTTCGCCAGTTTTTTTTCGCGGAGTCACCTAGTGCAG”, for which the binding signal is 10200 fluorescence intensity (a.u.).
As for “TGGGGTTTTCTTTTTTGGGTTGGGTTGATCTTTTGGGTGGCGGAGTCACCTAGTGCAG”, the binding signal is 36600 fluorescence intensity (a.u.).
Under “CTCCGGTTGCTTCACCTTGCAGGGCTCTTTATCTTAACCACGGAGTCACCTAGTGCAG” stands 8500 fluorescence intensity (a.u.); under “CGATCGCGATTTTTTTTTCTTCGCCGGATTTTTTTTTCTCCGGAGTCACCTAGTGCAG”, 9090 fluorescence intensity (a.u.).
As for “CCGTTGGGGACACGTGGCACTCTCGCATTCGTCGTTTGACCGGAGTCACCTAGTGCAG”, the figure is 8780 fluorescence intensity (a.u.); as for “CTTATATTTTGATGTGTTTCCTTCCATGGTTCGTTACTGTCGGAGTCACCTAGTGCAG”, 9830 fluorescence intensity (a.u.).
Consider “TTTTTCCCTTGCTCGTCTGCGCCGCCACCTCCTCCACCTTCGGAGTCACCTAGTGCAG”, for which the binding signal is 9520 fluorescence intensity (a.u.).
Under “ATCTTCATTCATGTCTCCAATAAGTTTATTTTCGACTAATCGGAGTCACCTAGTGCAG” stands 8110 fluorescence intensity (a.u.).
Take “AGCTAGTGACTTTTGTTGTGTTTTATTCCGTGCTGGTCAGCGGAGTCACCTAGTGCAG”: the binding signal was 8870 fluorescence intensity (a.u.).
“CACTTCTTTGGTCTGCTCTTCTTGGTATCCTTCTCCTACGCGGAGTCACCTAGTGCAG”: the binding signal was 10900 fluorescence intensity (a.u.).
Under “TCGACTATTTAGTTCTCTCTATTTCTTTGTTCATATACACCGGAGTCACCTAGTGCAG” stands 10000 fluorescence intensity (a.u.); under “GCTTTGATTTTTCCCCAAATTTCTTGACCGTTGGTAGGGCCGGAGTCACCTAGTGCAG”, 8190 fluorescence intensity (a.u.).
As for “TGCTTCTGTTAGGTTTCTTGGTCCAAGTTTGCCTTTCTCACGGAGTCACCTAGTGCAG”, the figure is 12800 fluorescence intensity (a.u.); as for “TCCTCATCTCATCCTAGCTACCTCCTCGTTTGATCGATCGCGGAGTCACCTAGTGCAG”, 10000 fluorescence intensity (a.u.).
Under “CACTTACATGCCATATCTACTGTTTTTACAAATGTAATGTCGGAGTCACCTAGTGCAG” stands 8440 fluorescence intensity (a.u.); under “CCTAACCATATTGTCTCTCTTGTCCTTATCACCGACCATACGGAGTCACCTAGTGCAG”, 10100 fluorescence intensity (a.u.).
In the case of “CCCTAATATTTTCATGTCTTGGTCCATATCCTCCATAAACCGGAGTCACCTAGTGCAG”, the binding signal was 8790 fluorescence intensity (a.u.).
For “ATGTTCTTTGCCATGATAATTGGGGTCATGTTTGTACTTTCGGAGTCACCTAGTGCAG”, the binding signal was 10900 fluorescence intensity (a.u.).
For the sequence “TACTACTGTACTACTCTCAGTCTCTCGGCTTCTAGACTAGCGGAGTCACCTAGTGCAG”, the binding signal was 8600 fluorescence intensity (a.u.).
Regarding “TCCCTGATTTTTACTGCTTTCCTTCTATTGTTACAAACTCCGGAGTCACCTAGTGCAG”, the binding signal is 10900 fluorescence intensity (a.u.).
As to “TATCGAGTCCCTGTAAGTTGTAACACGTGTTTGTTTCTCTCGGAGTCACCTAGTGCAG”, the binding signal is 8950 fluorescence intensity (a.u.).
Under “TATCACTCACCTCTGTAACCCTTATTTTGGAAAATCCGCACGGAGTCACCTAGTGCAG” stands 9000 fluorescence intensity (a.u.).
With “TAAACACCACGCTACAAATTTCCTTACCTGCTAAACGCAACGGAGTCACCTAGTGCAG”, the binding signal is 8370 fluorescence intensity (a.u.).
As to “CTCGCGCTCTCCTCTCCTCGCCGCCTCGCCGCCTCGCATGCGGAGTCACCTAGTGCAG”, the binding signal is 8560 fluorescence intensity (a.u.).
